Measurements from “University of Dundee, Small-Polar-MMV Screening Library” (2021), ChEMBL document CHEMBL3988442.

Sequences of proteins named here, by UniProt entry; tags and fusion partners are left off. Residues count along the entry.
UniProt I6X8D2, whole entry: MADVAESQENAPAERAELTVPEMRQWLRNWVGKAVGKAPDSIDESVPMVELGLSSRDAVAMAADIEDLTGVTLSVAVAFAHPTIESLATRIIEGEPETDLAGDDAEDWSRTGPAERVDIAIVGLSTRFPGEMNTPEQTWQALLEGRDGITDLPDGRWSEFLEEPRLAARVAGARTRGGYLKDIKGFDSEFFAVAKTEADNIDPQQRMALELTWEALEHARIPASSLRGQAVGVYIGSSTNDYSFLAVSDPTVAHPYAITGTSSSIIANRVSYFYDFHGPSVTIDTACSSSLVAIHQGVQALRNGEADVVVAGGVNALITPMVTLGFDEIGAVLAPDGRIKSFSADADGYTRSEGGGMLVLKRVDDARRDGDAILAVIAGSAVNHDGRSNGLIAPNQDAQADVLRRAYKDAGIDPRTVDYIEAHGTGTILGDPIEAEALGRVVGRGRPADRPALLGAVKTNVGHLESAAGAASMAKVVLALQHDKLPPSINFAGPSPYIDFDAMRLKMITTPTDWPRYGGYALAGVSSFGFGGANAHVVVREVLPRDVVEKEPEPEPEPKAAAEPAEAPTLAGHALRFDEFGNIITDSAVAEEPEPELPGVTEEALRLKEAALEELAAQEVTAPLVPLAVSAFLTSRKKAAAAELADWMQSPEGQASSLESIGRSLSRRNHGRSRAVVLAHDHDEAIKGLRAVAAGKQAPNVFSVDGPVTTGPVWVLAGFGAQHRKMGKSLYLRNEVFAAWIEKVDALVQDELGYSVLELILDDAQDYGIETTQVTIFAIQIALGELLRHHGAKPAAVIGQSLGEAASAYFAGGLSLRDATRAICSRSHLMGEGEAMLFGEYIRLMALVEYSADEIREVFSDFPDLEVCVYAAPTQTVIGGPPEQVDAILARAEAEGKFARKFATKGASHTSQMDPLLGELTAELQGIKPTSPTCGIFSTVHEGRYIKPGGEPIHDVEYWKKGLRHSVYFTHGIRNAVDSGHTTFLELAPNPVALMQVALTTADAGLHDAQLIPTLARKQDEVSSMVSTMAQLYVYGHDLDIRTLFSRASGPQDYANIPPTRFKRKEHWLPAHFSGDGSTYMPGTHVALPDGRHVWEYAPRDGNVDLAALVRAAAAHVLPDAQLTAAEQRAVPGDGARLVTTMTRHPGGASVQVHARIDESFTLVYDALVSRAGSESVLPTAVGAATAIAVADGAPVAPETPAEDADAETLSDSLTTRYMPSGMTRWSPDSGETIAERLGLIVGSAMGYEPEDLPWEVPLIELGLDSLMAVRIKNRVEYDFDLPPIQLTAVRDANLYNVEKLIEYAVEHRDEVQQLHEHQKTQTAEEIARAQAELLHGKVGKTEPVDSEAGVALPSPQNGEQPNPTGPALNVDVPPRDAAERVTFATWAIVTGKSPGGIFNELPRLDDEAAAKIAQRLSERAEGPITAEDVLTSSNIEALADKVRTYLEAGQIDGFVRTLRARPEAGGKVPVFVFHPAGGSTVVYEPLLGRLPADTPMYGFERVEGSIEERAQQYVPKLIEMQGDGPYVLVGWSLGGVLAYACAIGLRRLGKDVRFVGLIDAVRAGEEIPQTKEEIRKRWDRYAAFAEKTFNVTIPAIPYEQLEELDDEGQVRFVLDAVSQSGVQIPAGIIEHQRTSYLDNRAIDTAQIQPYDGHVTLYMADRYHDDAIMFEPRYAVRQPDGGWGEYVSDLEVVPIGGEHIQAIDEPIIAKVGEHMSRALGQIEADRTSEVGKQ
UniProt Q4DA54, 1-478: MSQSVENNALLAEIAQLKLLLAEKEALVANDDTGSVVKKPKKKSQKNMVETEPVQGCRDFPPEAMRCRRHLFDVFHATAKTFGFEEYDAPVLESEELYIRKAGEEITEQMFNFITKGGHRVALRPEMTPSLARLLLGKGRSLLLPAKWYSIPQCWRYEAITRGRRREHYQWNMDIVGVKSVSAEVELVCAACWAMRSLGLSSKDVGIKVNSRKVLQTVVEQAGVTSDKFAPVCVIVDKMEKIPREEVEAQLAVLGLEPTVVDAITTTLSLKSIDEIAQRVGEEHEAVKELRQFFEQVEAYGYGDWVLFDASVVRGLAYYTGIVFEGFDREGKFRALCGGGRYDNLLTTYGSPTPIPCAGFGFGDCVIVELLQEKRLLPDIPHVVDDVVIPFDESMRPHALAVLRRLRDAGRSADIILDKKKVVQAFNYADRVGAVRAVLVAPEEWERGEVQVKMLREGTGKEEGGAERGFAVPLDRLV
UniProt P9WPC5, whole entry: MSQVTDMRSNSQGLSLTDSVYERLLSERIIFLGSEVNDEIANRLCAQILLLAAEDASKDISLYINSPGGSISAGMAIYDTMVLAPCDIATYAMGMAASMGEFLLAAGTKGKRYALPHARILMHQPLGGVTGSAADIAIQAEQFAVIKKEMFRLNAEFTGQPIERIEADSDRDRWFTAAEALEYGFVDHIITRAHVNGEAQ
UniProt P9WPC3, whole entry partner: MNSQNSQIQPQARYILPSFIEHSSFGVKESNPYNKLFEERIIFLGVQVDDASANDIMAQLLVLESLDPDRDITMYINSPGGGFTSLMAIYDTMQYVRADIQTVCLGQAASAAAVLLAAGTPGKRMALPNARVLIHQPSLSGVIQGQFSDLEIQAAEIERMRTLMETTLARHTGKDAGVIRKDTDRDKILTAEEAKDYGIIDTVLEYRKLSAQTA
UniProt A4I591, 1-473: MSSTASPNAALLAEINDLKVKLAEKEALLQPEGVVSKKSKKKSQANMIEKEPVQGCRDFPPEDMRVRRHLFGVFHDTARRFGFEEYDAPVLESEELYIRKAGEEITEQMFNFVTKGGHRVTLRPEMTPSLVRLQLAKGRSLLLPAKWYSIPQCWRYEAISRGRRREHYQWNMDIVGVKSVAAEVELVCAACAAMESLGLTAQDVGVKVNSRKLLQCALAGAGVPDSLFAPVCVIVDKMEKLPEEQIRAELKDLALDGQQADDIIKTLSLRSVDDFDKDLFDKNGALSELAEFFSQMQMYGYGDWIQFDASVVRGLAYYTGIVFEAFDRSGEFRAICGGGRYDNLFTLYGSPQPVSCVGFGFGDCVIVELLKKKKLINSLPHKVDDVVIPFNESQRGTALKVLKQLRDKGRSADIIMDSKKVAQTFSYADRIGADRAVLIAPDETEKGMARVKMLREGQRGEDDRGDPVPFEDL

Pks13 thioesterase: 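Polyketide synthase Pks13, Mycobacterium tuberculosis (UniProt I6X8D2). Enzyme assay of the thioesterase domain of polyketide synthase 13; the read-out is not stated. Concentration: 30 µM. Higher reads as stronger inhibition (inferred from which compounds were picked for retests). About 67,000 compounds were tested under these conditions; 0.46% (about 300) showed 50% or more at least once.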
TcHisRS: 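Histidine-tRNA ligase, Trypanosoma cruzi CL Brener (UniProt Q4DA54). Enzyme assay of histidyl-tRNA synthetase; the read-out is not stated. Tested at 30 µM. The record gives no direction; compounds that gave an IC50 in retests scored well above the rest, so higher reads as stronger inhibition. Of about 69,000 compounds tested this way, about 31 (0.045%) reached 50% or more in at least one test.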
ClpP1P2: 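Protease assay of ClpP1P2, read by the AMC dye that it sets free. Target: ClpP1P2, Mycobacterium tuberculosis (UniProt P9WPC5 and UniProt P9WPC3). Compounds at 50 µM. Direction is inferred from only a few compounds that gave an IC50; most scored high, so higher reads as stronger inhibition. Most other retested compounds had strongly negative values. Size under these conditions: about 69,000 compounds, about 10 of them at 50% or above in at least one test.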
Leishmania in macrophages: 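Cell assay of Leishmania donovani living inside macrophages; the read-out is not stated. Compounds at 30 µM. The record gives no direction; compounds that gave an IC50 in retests scored well above the rest, so higher reads as stronger inhibition. About 69,000 compounds were tested under these conditions; 1.5% (about 1,000) showed 50% or more at least once.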
LiHisRS: 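Histidine-tRNA ligase, Leishmania infantum (UniProt A4I591). Enzyme assay of histidyl-tRNA synthetase; the read-out is not stated. Concentration: 30 µM. Higher reads as stronger inhibition (inferred: compounds with an IC50 in retests scored well above the rest). The assay is labelled LdHisRS but filed under L. infantum. Of about 69,000 compounds tested this way, about 410 (0.6%) reached 50% or more in at least one test.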

Results are given as percent effect. The controls that fix the scale are not given in the record; negative values are as filed. This is an unselected part of the compounds tested.

Result for Cc1ccc(NC(=O)Nc2c(O)oc3ccccc3c2=O)cc1 was Pks13 thioesterase: 12.03%; TcHisRS: 0.4464%; ClpP1P2: 3.514%; Leishmania in macrophages: 20.57%; LiHisRS: 6.173%.
Result for O=C(O)C(F)(F)F.O=C(O)CCC(=O)N1CCN(CC2CC2)c2ncccc2C1 was Leishmania in macrophages: -9.585%.
Result for c1csc(SCC2CN=C(N3CCOCC3)S2)c1 (stereo unspecified) was Pks13 thioesterase: -6.209%; TcHisRS: -3.704%; ClpP1P2: -11.36%; Leishmania in macrophages: 12.56%; LiHisRS: 12.9%.
Result for O=C(NCCn1nc(C2CCNC2)c2cccnc21)c1ccccc1 (stereo unspecified) was TcHisRS: 10.64%; ClpP1P2: 2.308%; LiHisRS: -17.71%.
Result for Cc1ccc(N2CCCC(NC(=O)C(C)(C)C#N)C2=O)cc1 (stereo unspecified) was Pks13 thioesterase: 1.591%; TcHisRS: 2.762%; ClpP1P2: 1.164%; Leishmania in macrophages: 8.418%; LiHisRS: 18.31%.
Result for CCOc1cc(F)ccc1NS(=O)(=O)c1cc(C)c(C(=O)O)s1 was Pks13 thioesterase: 4.81%; TcHisRS: 0%; ClpP1P2: -8.945%; Leishmania in macrophages: -3.819%; LiHisRS: 39.62%.
Result for CC(C)c1nn(C)c(N(C)C)c1CNC1CCCCNC1=O (stereo unspecified) was Pks13 thioesterase: -34%; TcHisRS: 8.287%; ClpP1P2: 4.227%; Leishmania in macrophages: 15.73%; LiHisRS: 6.25%.
Result for CC(C)(C)c1noc(CN2CCCC(CNS(N)(=O)=O)C2)n1 (stereo unspecified) was Pks13 thioesterase: 1.17%; TcHisRS: 8.434%; ClpP1P2: -6.63%; Leishmania in macrophages: -3.612%; LiHisRS: 6%.
Result for CN(CC(=O)N1CCCCC1Cn1cccn1)Cc1ccccc1 (stereo unspecified) was Pks13 thioesterase: -7.004%; TcHisRS: 1.143%; ClpP1P2: -12.34%; Leishmania in macrophages: 30.2%; LiHisRS: -1.695%.
Result for CC(c1cccc(F)c1)N1CCN(Cc2nccn2C)CC1 (stereo unspecified) was Pks13 thioesterase: -12.5%; TcHisRS: 3.207%; ClpP1P2: -35.89%; Leishmania in macrophages: 5.36%; LiHisRS: 11.5%.
Result for OCc1cc2ccccc2nc1N1CCCCC1 was Pks13 thioesterase: 3.253%; TcHisRS: -0.9901%; ClpP1P2: 23.38%; Leishmania in macrophages: 39.53%; LiHisRS: -7.609%.
Result for OC1CN(Cc2ccccc2)CCN(c2ccncc2)C1 (stereo unspecified) was Pks13 thioesterase: -35.35%; TcHisRS: 2.041%; ClpP1P2: -6.944%; Leishmania in macrophages: -17.78%; LiHisRS: 22.22%.
Result for Cc1ccc(C(=O)N2Cc3c(CN(C)C)nn(C)c3C2)cc1C was Pks13 thioesterase: 1.279%; TcHisRS: -39.2%; ClpP1P2: 1.062%; LiHisRS: -43.36%.
Result for CC1CCCN(c2nccn3c(=O)[nH]nc23)C1 (stereo unspecified) was Pks13 thioesterase: -20.95%; TcHisRS: -2.959%; ClpP1P2: 18.6%; Leishmania in macrophages: 22.51%; LiHisRS: 11.03%.
Result for CC(C)N1CC2(CCCN(c3ccnc4ccccc34)C2)CCC1=O (stereo unspecified) was Pks13 thioesterase: 24.79%; TcHisRS: 5.579%; ClpP1P2: 3.706%; Leishmania in macrophages: 61.79%; LiHisRS: 16.39%.
Result for COC[C@]1(O)CCN(c2cc(N3CCOCC3)ncn2)CC1(C)C was Pks13 thioesterase: -4.559%; TcHisRS: 0%; ClpP1P2: -2.96%; Leishmania in macrophages: 40.01%; LiHisRS: 5%.
Result for CCc1nccn1C1CCCN(C(=O)c2ccc(N(C)C)nn2)C1 (stereo unspecified) was Pks13 thioesterase: 15.59%; TcHisRS: 4.167%; ClpP1P2: -16.34%; Leishmania in macrophages: 2.992%; LiHisRS: 3.774%.
Result for CSCC(C)(O)CNc1cccc(F)c1C(C)=O (stereo unspecified) was Pks13 thioesterase: -21.87%; TcHisRS: -5.155%; ClpP1P2: 5.382%; Leishmania in macrophages: 23.14%; LiHisRS: 2.857%.
Result for COC(=O)C1CCCN1C(=O)c1cc(CC(C)C)no1 (stereo unspecified) was Pks13 thioesterase: -0.01645%; TcHisRS: 5.357%; ClpP1P2: -6.021%; Leishmania in macrophages: -4.349%; LiHisRS: 20.43%.
Result for CO[C@H]1COCCN(C(=O)c2ccc(C(F)(F)F)cc2)C1 was Pks13 thioesterase: -28.62%; TcHisRS: 0.4975%; ClpP1P2: -13.02%; Leishmania in macrophages: 24.75%; LiHisRS: 37.84%.
Result for CCc1ccccc1-c1cc(OC)nc(N)n1 was Pks13 thioesterase: -5.503%; TcHisRS: 7.2%; ClpP1P2: -21.45%; Leishmania in macrophages: -29.29%; LiHisRS: 8.197%.
Result for O=C(c1ccco1)N1CCc2ncnc(Oc3cccnc3)c2CC1 was Pks13 thioesterase: -9.802%; TcHisRS: 11.44%; ClpP1P2: -0.4175%; LiHisRS: 13.89%.
Result for O=C(CC1CCCC1)N1CCCC1c1nc(O)cc(-c2ccccn2)n1 (stereo unspecified) was Pks13 thioesterase: -33.5%; TcHisRS: 1.622%; ClpP1P2: -1.208%; Leishmania in macrophages: -15.86%; LiHisRS: 27.78%.
Result for CC(C)CN1C[C@@H]2CN(C(=O)c3cccn3C)C[C@@H]2C1=O was Pks13 thioesterase: -9.108%; TcHisRS: 1.031%; ClpP1P2: -7.297%; LiHisRS: 18%.
Result for CC(=O)N1N=C(c2ccco2)OC1C(=O)N(C)CCc1ccccc1 (stereo unspecified) was Pks13 thioesterase: 7.592%; TcHisRS: 2.273%; ClpP1P2: -15.5%; Leishmania in macrophages: -16.33%; LiHisRS: -3.96%.

2 of the entries, repeated:

* CCc1ccccc1-c1cc(OC)nc(N)n1 : Pks13 thioesterase: -5.503%; TcHisRS: 7.2%; ClpP1P2: -21.45%; Leishmania in macrophages: -29.29%; LiHisRS: 8.197%
* COC(=O)C1CCCN1C(=O)c1cc(CC(C)C)no1 (stereo unspecified) : Pks13 thioesterase: -0.01645%; TcHisRS: 5.357%; ClpP1P2: -6.021%; Leishmania in macrophages: -4.349%; LiHisRS: 20.43%